Literature values in publication PMC8541513, “Stereoselective Synthesis of the Di-Spirooxindole Analogs Based Oxindole and Cyclohexanone Moieties as Potential Anticancer Agents” (Molecules, 2021).

Test system: PC-3
Parameters: method as in Barakat et al. (15)
Conditions: ref Barakat et al. (15); cited from earlier work

For N.N.[Cl][Pt][Cl] [cisplatin], the IC50 is listed as 5 µM.
